From PubChem BioAssay AID2685 (National Center for Advancing Translational Sciences (NCATS), 2010)
The list shows a part of the results. Shown are side measurements of this screen, not its main read-out; they come without a call. Most of these compounds were active or inconclusive in the main read-out, so they are no random draw. Words in brackets tell the shape of the fitted curve; partial curves, single points and poor fits give uncertain potencies.

Assay: qHTS Assay for Lipid Storage Modulators in Drosophila S3 Cells;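 for cell number change: cells counted by Cell Tracker Red CMTPX staining in the red channel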
Conditions: BODIPY lipid droplet fluorescence, 18-24 h; for cell number change: measured here: cell count max response, cells fed with added oleic acid
Summary of the method: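 Laser-scanning cytometry quantifies lipid droplet accumulation (500–530 nm total intensity; droplet/cell object ratio) in oleic acid-fed (400 uM added) Drosophila S3 cells treated with a concentration series. 20 uM Triacsin C defined 100% inhibition.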

[1] = measured here: lipid fluorescence (Fed channel) AC50, cells fed with added oleic acid
[2] = measured here: cell number channel AC50, cells fed with added oleic acid

SMILES | cell number change | AC50 [1] | AC50 [2]
Cc1cccc(COc2ncnc3nc[nH]c23)c1 | -3.37% | 6.51 µM [rising, partial curve] | 
Cc1cc(C)n2c(=S)[nH]nc2n1 | -33.2% |  | 6.51 µM [falling, full curve, poor fit]
CCNc1nc(NC(N)=S)nc(NC(C)(C)C)n1 | 7.09% | 0.0058 µM [rising, full curve, poor fit] | 
COc1cc(OC)c(NC(=O)Cn2cnc3sc(C)c(S(=O)(=O)N4CCOCC4)c3c2=O)cc1Cl | -23.8% |  | 0.146 µM [falling, full curve, poor fit]
Nc1nc(-c2cc3c(cc2Cl)OCCO3)cs1 | -32.8% |  | 14.6 µM [falling, partial curve, poor fit]
COc1ccc(Nc2cc(C(=O)NCCCN3CCOCC3)c3ccccc3n2)c(OC)c1 |  | 0.116 µM [falling, full curve, poor fit] | 
COC(=O)C1CN(C(=O)c2ccc(OC(F)F)cc2)c2ccccc2O1 (stereo not drawn) | 2.25% |  | 
Cc1ccc(-c2nn(-c3ccccc3)cc2NC(=O)CCl)cc1 | -75% | 29.1 µM [falling, single point] | 29.1 µM [falling, single point]
CCOC(=O)c1cnc(SCc2cccc3ccccc23)nc1N |  | 0.651 µM [rising, single point] | 4.61 µM [rising, partial curve]
CCCCCC(=O)Nc1ccc(S(=O)(=O)Nc2cc(OC)nc(OC)n2)cc1 | 36.9% | 6.51 µM [rising, single point] | 7.31 µM [rising, partial curve]
COC(=O)c1ccccc1NC(=O)Nc1ccc(C)cn1 | 104% |  | 18.4 µM [rising, single point]
Cc1cc(OC(=O)c2ccc(Cl)cc2Cl)nc(C)n1 | -22.7% | 29.1 µM [falling, single point] | 
COc1ccccc1CC(NC(C)=O)C(=O)NC1CCN(C(=O)Nc2ccc(F)cc2)CC1 (stereo not drawn) | -3.85% |  | 
COc1cc(C2C(C#N)=C(N)Oc3cc(N)ccc32)cc(OC)c1OC (stereo not drawn) | -29.7% | 5.8 µM [falling, single point] | 4.11 µM [falling, full curve, poor fit]
COC(=O)C(Cc1ccccc1)NC(=O)CSc1nc(C)cc(=O)[nH]1 (stereo not drawn) | -44.7% | 0.82 µM [falling, full curve] | 16.4 µM [falling, single point]
COc1cccc(N2CCN(S(=O)(=O)c3ccc4ccccc4c3)CC2)c1 | 1.16% | 5.8 µM [falling, single point] | 

3 structures already listed, ordered by number of heavy atoms, smallest number first:
SMILES | cell number change | AC50 [1] | AC50 [2]
Cc1cc(C)n2c(=S)[nH]nc2n1 | -33.2% |  | 6.51 µM [falling, full curve, poor fit]
COc1cc(C2C(C#N)=C(N)Oc3cc(N)ccc32)cc(OC)c1OC (stereo not drawn) | -29.7% | 5.8 µM [falling, single point] | 4.11 µM [falling, full curve, poor fit]
COc1ccc(Nc2cc(C(=O)NCCCN3CCOCC3)c3ccccc3n2)c(OC)c1 |  | 0.116 µM [falling, full curve, poor fit] | 
